Source: PMC7862700
The list shows a part of the results, in another mix than the full data. For part of these data: At the low end of the ranking the order means little. The list shows a part of the results. For part of these data: The source does not settle which construct or isoform was used.

Key:
Assay in all cases: DAPPL (digital affinity profiling via proximity ligation, sequencing)
Settings in all cases: 10 mM Tris-HCl pH 7.5, 50 mM NaCl, 1 mM DTT, 4% glycerol, room temperature, 30 min; GST-TFs on glutathione beads, 16-mer random dsDNA library, 0.1% …; high values mean tight binding; double strand, one strand shown; scale: fold enrichment (6-mer frequency, TF over GST control)
GABPA = biological target: T1, GABPA (UniProt Q06546)
T1 sequence: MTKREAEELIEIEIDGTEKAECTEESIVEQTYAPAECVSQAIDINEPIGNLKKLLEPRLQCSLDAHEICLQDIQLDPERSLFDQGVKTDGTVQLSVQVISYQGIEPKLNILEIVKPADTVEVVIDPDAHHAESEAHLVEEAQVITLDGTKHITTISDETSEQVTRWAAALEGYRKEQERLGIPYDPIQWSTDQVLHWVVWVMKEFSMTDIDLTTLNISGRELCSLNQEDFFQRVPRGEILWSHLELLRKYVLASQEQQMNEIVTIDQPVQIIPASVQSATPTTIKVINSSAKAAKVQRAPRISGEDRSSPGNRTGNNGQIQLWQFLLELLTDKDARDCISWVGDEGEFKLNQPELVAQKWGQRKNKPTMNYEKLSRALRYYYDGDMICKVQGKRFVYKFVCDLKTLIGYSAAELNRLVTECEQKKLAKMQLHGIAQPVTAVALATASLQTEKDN

ETS1 = biological target: T2, ETS1 (UniProt P14921)
T2 sequence: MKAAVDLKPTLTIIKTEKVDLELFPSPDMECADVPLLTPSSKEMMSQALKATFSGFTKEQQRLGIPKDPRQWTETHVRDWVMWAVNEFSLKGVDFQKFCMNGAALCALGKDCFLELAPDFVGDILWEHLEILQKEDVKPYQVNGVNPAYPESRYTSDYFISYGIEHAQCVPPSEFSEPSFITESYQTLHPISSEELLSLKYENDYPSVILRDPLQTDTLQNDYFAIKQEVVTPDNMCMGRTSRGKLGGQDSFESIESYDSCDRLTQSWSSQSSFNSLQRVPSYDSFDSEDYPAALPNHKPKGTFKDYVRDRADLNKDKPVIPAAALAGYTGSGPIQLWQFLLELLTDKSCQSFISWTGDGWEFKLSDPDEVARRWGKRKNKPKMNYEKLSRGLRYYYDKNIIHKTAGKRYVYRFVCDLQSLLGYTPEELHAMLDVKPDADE

SPDEF = biological target: T3, SPDEF (UniProt O95238)
T3 sequence: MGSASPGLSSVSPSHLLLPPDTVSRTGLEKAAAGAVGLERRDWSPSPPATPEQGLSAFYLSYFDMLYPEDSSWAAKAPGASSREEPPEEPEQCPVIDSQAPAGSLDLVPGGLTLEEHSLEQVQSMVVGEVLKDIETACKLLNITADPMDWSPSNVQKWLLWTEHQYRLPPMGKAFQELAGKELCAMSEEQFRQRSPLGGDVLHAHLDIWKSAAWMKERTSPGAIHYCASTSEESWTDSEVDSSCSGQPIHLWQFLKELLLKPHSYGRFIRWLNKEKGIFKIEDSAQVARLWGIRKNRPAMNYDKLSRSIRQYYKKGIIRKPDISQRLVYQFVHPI

Sequence | binding signal (GABPA) | binding signal (ETS1) | binding signal (SPDEF)
GACGCT | 0.8 | 0.78 | 0.742
GGTTCG | 0.839 | 0.778 | 0.844
CCAGCG | 0.608 | 0.622 | 0.657
GAGGGT | 0.554 | 0.547 | 0.52
CACGTC | 0.915 | 0.855 | 0.938
ACGCAG | 0.817 | 0.779 | 0.831
AGACCC | 0.683 | 0.764 | 0.716
TGGCGG | 0.75 | 0.816 | 0.703
GCCGGG | 0.378 | 0.411 | 0.405
GGTGTA | 0.749 | 0.867 | 0.813
TACCAG | 0.851 | 0.867 | 0.84
CGGAGG | 0.282 | 0.29 | 0.269
GGCGTC | 0.732 | 0.845 | 0.735
GGTGCA | 0.956 | 0.781 | 0.938
CCAGTG | 0.467 | 0.492 | 0.437
GAGGCT | 0.629 | 0.645 | 0.561
CAGGTT | 0.669 | 0.66 | 0.629
GCTTGA | 0.947 | 0.896 | 0.824
GGCGGG | 0.329 | 0.289 | 0.332
CAGAGC | 0.871 | 0.84 | 0.836
GCGCAG | 0.876 | 0.843 | 0.769
AAGTCG | 0.513 | 0.475 | 0.467
GACTGT | 0.412 | 0.417 | 0.417
GTATAG | 0.866 | 0.911 | 0.823

Already shown: entries from further up.
Sequence | binding signal (GABPA) | binding signal (ETS1) | binding signal (SPDEF)
AAGTCG | 0.513 | 0.475 | 0.467
GACTGT | 0.412 | 0.417 | 0.417
GTATAG | 0.866 | 0.911 | 0.823

The results go on.

Sequence | binding signal (GABPA) | binding signal (ETS1) | binding signal (SPDEF)
CGAGGA | 0.659 | 0.643 | 0.64
GGTCGT | 0.71 | 0.619 | 0.615
GAGCCC | 0.811 | 0.748 | 0.632
AAGGTG | 0.894 | 0.896 | 0.866
GACCAG | 0.638 | 0.642 | 0.685
CGGGTG | 0.608 | 0.647 | 0.762
AGATAC | 0.903 | 0.924 | 0.939
CGTAGG | 0.639 | 0.647 | 0.625
GATCGG | 0.485 | 0.491 | 0.44
GTGTAT | 0.914 | 0.943 | 0.988
AGATAG | 0.899 | 0.796 | 0.807
GTCAAG | 0.776 | 0.768 | 0.81
TGTGTA | 0.826 | 0.94 | 0.911
ACCAGA | 0.887 | 0.914 | 0.853
AAGAGC | 0.881 | 0.923 | 0.772
TGGGGC | 0.817 | 0.874 | 0.776
AGGCCG | 0.442 | 0.475 | 0.45
ACGCAA | 0.914 | 0.94 | 0.863
GTGTGT | 0.522 | 0.501 | 0.535
TTAGAC | 0.73 | 0.846 | 0.893
TTGGAG | 0.487 | 0.51 | 0.521
GGGGAA | 0.728 | 0.732 | 0.63
GGGAAT | 0.77 | 0.758 | 0.752
GAATCG | 0.692 | 0.607 | 0.575

Sequence | binding signal (GABPA) | binding signal (ETS1) | binding signal (SPDEF)
TGAGGT | 0.628 | 0.631 | 0.58
GAGACA | 0.37 | 0.362 | 0.338
GCGGCC | 0.872 | 0.77 | 0.727
CAGTGA | 0.364 | 0.39 | 0.373
AGTCGG | 0.146 | 0.138 | 0.147
TCGGAT | 0.481 | 0.515 | 0.55
ATTGGA | 0.909 | 0.882 | 0.86
TGTAGG | 0.754 | 0.823 | 0.841
ACCGGG | 0.518 | 0.476 | 0.65
GCGCAA | 0.859 | 0.873 | 0.827
GGAGGG | 0.329 | 0.316 | 0.312
CACGGG | 0.794 | 0.758 | 0.728
GGCATC | 0.921 | 1.01 | 0.991
TGAGAA | 0.731 | 0.758 | 0.657
GCAGAG | 0.67 | 0.65 | 0.64
AGTCCA | 0.716 | 0.696 | 0.65
GCATCA | 0.815 | 0.776 | 0.713
GTGGAG | 0.44 | 0.423 | 0.402
GACGAT | 0.96 | 0.989 | 0.817
GAGTCG | 0.246 | 0.198 | 0.226
CAGTCA | 0.481 | 0.486 | 0.429
GAGCAA | 0.748 | 0.726 | 0.729
AGCCCG | 0.943 | 0.869 | 0.825
AGAGCA | 0.727 | 0.701 | 0.688

Sequence | binding signal (GABPA) | binding signal (ETS1) | binding signal (SPDEF)
ATGGAG | 0.518 | 0.533 | 0.513
GCGGTG | 0.529 | 0.483 | 0.54
GACCCT | 0.923 | 0.87 | 0.93
AGCAGG | 0.841 | 0.88 | 0.852
GAGCGG | 0.5 | 0.499 | 0.483
GCGGGT | 0.585 | 0.643 | 0.599
ACGTCG | 0.654 | 0.702 | 0.637
AGAGCC | 0.751 | 0.723 | 0.672
CGCATA | 0.716 | 0.697 | 0.728
TCCGTG | 0.521 | 0.482 | 0.627
GCTCGG | 0.756 | 0.715 | 0.768
AGGTTG | 0.733 | 0.77 | 0.769
AGTGTG | 0.739 | 0.65 | 0.65
GACAGA | 0.686 | 0.696 | 0.667
AAGACA | 0.999 | 0.982 | 0.93
GTCGGC | 0.359 | 0.393 | 0.407
CGAGCG | 0.889 | 0.922 | 0.906
GGAGTA | 0.361 | 0.352 | 0.35
AATCGG | 0.543 | 0.545 | 0.522
GGTAAG | 0.754 | 0.758 | 0.735
GTACCG | 0.73 | 0.712 | 0.754
AACGTG | 0.354 | 0.364 | 0.374
GGGGCG | 0.566 | 0.66 | 0.594
GTTAGG | 0.828 | 0.769 | 0.846

Sequence | binding signal (GABPA) | binding signal (ETS1) | binding signal (SPDEF)
GCGGGC | 0.723 | 0.628 | 0.652
GTGCGT | 0.572 | 0.598 | 0.573
CAGGTC | 0.725 | 0.731 | 0.75
AGTCAC | 0.725 | 0.756 | 0.721
GCCATG | 0.819 | 0.793 | 0.784
CGCGGT | 0.858 | 0.868 | 0.818
CGTCAG | 0.823 | 0.747 | 0.847
GTGGGG | 0.649 | 0.567 | 0.524
AAGACC | 0.866 | 0.815 | 0.851
GGCGGT | 0.443 | 0.423 | 0.376
CAGTGT | 0.701 | 0.699 | 0.69
GAGCGC | 0.654 | 0.643 | 0.548
CTCGGA | 0.858 | 0.791 | 0.806
GGTAGC | 0.868 | 0.794 | 0.875
CAGCCA | 0.832 | 0.824 | 0.813
GTACGG | 0.781 | 0.841 | 0.833
GGGAGC | 0.377 | 0.396 | 0.373
AGGCCA | 0.726 | 0.639 | 0.629
TGCCGT | 0.773 | 0.827 | 0.947
GGGGGA | 0.562 | 0.579 | 0.591
CGTGAC | 0.547 | 0.512 | 0.606
GGACGT | 0.492 | 0.56 | 0.647
CCTAGT | 0.949 | 0.953 | 0.951
ACCAGT | 0.467 | 0.459 | 0.454
